PubChem BioAssay AID743454 | Peter MacCallum Cancer Centre – 2014
Purpose: 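Knock-downs lowering viability or raising caspase 3/7 activity in vorinostat-treated resistant cells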 (primary screen). Cell system: human HCT116-VR colon cancer cells, selected for vorinostat resistance. Reagents: siRNA pool against human genes, 40 nM siRNA pool. Duration: vorinostat for 24 h, read-out about 72 h after transfection. Challenge: vorinostat at 2.5 µM final. Read-out: 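Cell viability by CellTiter-Fluor and caspase 3/7 activity by luminescence, each scaled to mock wells per plate, duplicates averaged, then robust z-scored over all plates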. Reading the numbers: viability robust z-score: higher = more viable cells than screen typical; caspase robust z-score: higher = more caspase 3/7 activity than screen typical. Active means: 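Hits are knock-downs in viability class RV1/RV2 or caspase class CA1/CA2, excluding ones that killed cells in the no-drug cell-count arm; hits then retested with single siRNAs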.
This is a random part of about 18,000 reagents tested. 450 of all reagents (2.5%) count as active. 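Single biological run; no consistent viability z cut-off exists, so the class columns, not z-scores, define the calls.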

target gene	PubChem SID	viability hit class	caspase hit class	viability robust z-score	caspase robust z-score	outcome
STMN1	SID135620943	no change	no change	-0.66	0.31	inactive
LRP3	SID134323387	no change	CA1 (caspase activation)	-0.32	5.77	active
TPH1	SID134314758	no change	no change	1.14	0.12	inactive
FAM181B	SID152148911	no change	no change	-0.22	-0.77	inactive
AGTPBP1	SID134318242	no change	no change	1.14	0.35	inactive
IFNAR1	SID134323939	no change	no change	0.78	-0.43	inactive
ZNF234	SID134317006	no change	no change	0.59	-0.24	inactive
SHF	SID152154440	no change	no change	-1.88	1.75	inactive
MOB1A	SID152155405	no change	no change	-0.37	1.53	inactive
CLEC10A	SID152150774	no change	no change	0.82	-0.38	inactive
RDH13	SID134313490	no change	no change	1.48	-0.28	inactive

4 entries from above in another layout.
TPH1 [SID134314758]
- viability hit class: no change
- caspase hit class: no change
- viability robust z-score: 1.14
- caspase robust z-score: 0.12
- outcome: inactive

FAM181B [SID152148911]
- viability hit class: no change
- caspase hit class: no change
- viability robust z-score: -0.22
- caspase robust z-score: -0.77
- outcome: inactive

AGTPBP1 [SID134318242]
- viability hit class: no change
- caspase hit class: no change
- viability robust z-score: 1.14
- caspase robust z-score: 0.35
- outcome: inactive

IFNAR1 [SID134323939]
- viability hit class: no change
- caspase hit class: no change
- viability robust z-score: 0.78
- caspase robust z-score: -0.43
- outcome: inactive

More records:
target gene	PubChem SID	viability hit class	caspase hit class	viability robust z-score	caspase robust z-score	outcome
EDDM3A	SID152152561	no change	no change	0.96	-0.57	inactive
DCAF11	SID134322868	no change	no change	0.76	-0.48	inactive
KIF2C	SID134310681	no change	no change	0.2	-0.84	inactive
RMP24	SID152150577	no change	no change	0.22	-0.14	inactive
BEND4	SID135625079	no change	no change	0.2	-0.27	inactive
ANKRD36B	SID152152886	no change	no change	-0.42	-0.32	inactive
BCL3	SID152147429	no change	CA1 (caspase activation)	-1.79	5.88	active
OLFML3	SID152154066	no change	no change	-0.68	0.38	inactive
OR52A4P	SID134329881	no change	no change	0.18	-0.07	inactive
NPRL3	SID135623902	no change	no change	0.77	-0.03	inactive
TYR	SID152148153	no change	no change	-0.41	0.26	inactive
SCARB1	SID152153189	no change	no change	0.18	-0.78	inactive
